# Source: the supplement of paper PMC8728848
# The list shows a part of the results.
# Experiments:
# Experiment in all cases: glycan array binding signal (z-score within array); higher = stronger binding
# Settings in all cases: glycan notation: IUPAC condensed, linker removed
# [1] = biological target: Gal(b1-4)GlcNAc(b1-2)[Gal(b1-4)GlcNAc(b1-4)]Man(a1-3)[Gal(b1-4)GlcNAc(b1-2)[Gal(b1-4)GlcNAc(b1-6)]Man(a1-6)]Man(b1-4)GlcNAc(b1-4)GlcNAc
# Procedure, shortened: (§1)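 The Consortium for Functional Glycomics database supplied 3228 glycan arrays, of which those lacking an available protein sequence were dropped. The binding signal, a within-array Z-score, was averaged across arrays of the same protein sequence and across linkers. Negative scores can be read as non-binding.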
# [2] = biological target: Gal(b1-4)GlcNAc(b1-2)[Gal(b1-4)GlcNAc(b1-4)]Man(a1-3)[GlcNAc(b1-4)][Gal(b1-4)GlcNAc(b1-2)Man(a1-6)]Man(b1-4)GlcNAc(b1-4)GlcNAc
# Procedure, shortened: as §1
# [3] = biological target: Gal(b1-4)GlcNAc(b1-2)[Gal(b1-4)GlcNAc(b1-6)]Man(a1-6)[GlcNAc(b1-4)][Gal(b1-4)GlcNAc(b1-2)Man(a1-3)]Man(b1-4)GlcNAc(b1-4)GlcNAc
# Procedure, shortened: as §1
# [4] = biological target: Gal(b1-4)GlcNAc(b1-3)Gal(b1-3)GlcNAc
# Procedure, shortened: as §1
# [5] = biological target: Gal(b1-4)GlcNAc(b1-3)Gal(b1-4)Glc
# Procedure, shortened: as §1
# [6] = biological target: Gal(b1-4)GlcNAc(b1-3)Gal(b1-4)GlcNAc
# Procedure, shortened: as §1
# [7] = biological target: Gal(b1-4)GlcNAc(b1-3)Gal(b1-4)GlcNAc(b1-3)Gal(b1-4)GlcNAc
# Procedure, shortened: as §1
# [8] = biological target: Gal(b1-4)GlcNAc(b1-3)Gal(b1-4)[Fuc(a1-3)GlcNAc(b1-6)]Gal(b1-4)Glc
# Procedure, shortened: as §1
# [9] = biological target: Gal(b1-4)GlcNAc(b1-3)Gal(b1-4)[Fuc(a1-3)]GlcNAc(b1-3)Gal(b1-4)[Fuc(a1-3)]GlcNAc
# Procedure, shortened: as §1
# [10] = biological target: Gal(b1-4)GlcNAc(b1-3)GalNAc
# Procedure, shortened: as §1
# [11] = biological target: Gal(b1-4)GlcNAc(b1-3)[Gal(b1-4)GlcNAc(b1-6)]Gal(b1-4)GlcNAc
# Procedure, shortened: as §1
# [12] = biological target: Gal(b1-4)GlcNAc(b1-3)[Gal(b1-4)GlcNAc(b1-6)]GalNAc
# Procedure, shortened: as §1
# [13] = biological target: Gal(b1-4)GlcNAc(b1-3)[GlcNAc(b1-6)]Gal(b1-4)GlcNAc
# Procedure, shortened: as §1
# [14] = biological target: Gal(b1-4)GlcNAc(b1-6)Gal(b1-4)GlcNAc
# Procedure, shortened: as §1
# [15] = biological target: Gal(b1-4)GlcNAc(b1-6)GalNAc
# Procedure, shortened: as §1
# [16] = biological target: Gal(b1-4)GlcNAc(b1-6)[Gal(b1-3)]GalNAc
# Procedure, shortened: as §1
# Gal(b1-6)Gal = biological target: Gal(b1-6)Gal
# Procedure, shortened: as §1
# Gal3S(b1-3)GalNAc = biological target: Gal3S(b1-3)GalNAc
# Procedure, shortened: as §1
# Gal3S(b1-3)GlcNAc = biological target: Gal3S(b1-3)GlcNAc
# Procedure, shortened: as §1
# [17] = biological target: Gal3S(b1-3)[Fuc(a1-4)]GlcNAc
# Procedure, shortened: as §1
# Gal3S(b1-4)Glc = biological target: Gal3S(b1-4)Glc
# Procedure, shortened: as §1
# Gal3S(b1-4)Glc6S = biological target: Gal3S(b1-4)Glc6S
# Procedure, shortened: as §1
# Gal3S(b1-4)GlcNAc = biological target: Gal3S(b1-4)GlcNAc
# Procedure, shortened: as §1
# Gal3S(b1-4)GlcNAc6S = biological target: Gal3S(b1-4)GlcNAc6S
# Procedure, shortened: as §1
# [18] = biological target: Gal3S(b1-4)[Fuc(a1-3)]Glc
# Procedure, shortened: as §1
# [19] = biological target: Gal3S(b1-4)[Fuc(a1-3)]Glc6S
# Procedure, shortened: as §1
# Gal3S4S(b1-4)GlcNAc = biological target: Gal3S4S(b1-4)GlcNAc
# Procedure, shortened: as §1
# Gal3S6S(b1-4)GlcNAc = biological target: Gal3S6S(b1-4)GlcNAc
# Procedure, shortened: as §1
# Gal3S6S(b1-4)GlcNAc6S = biological target: Gal3S6S(b1-4)GlcNAc6S
# Procedure, shortened: as §1
# Gal4S(b1-4)GlcNAc = biological target: Gal4S(b1-4)GlcNAc
# Procedure, shortened: as §1
# Gal4S6S(b1-4)GlcNAc = biological target: Gal4S6S(b1-4)GlcNAc
# Procedure, shortened: as §1
# Gal6S(b1-3)GlcNAc = biological target: Gal6S(b1-3)GlcNAc
# Procedure, shortened: as §1
# Gal6S(b1-3)GlcNAc6S = biological target: Gal6S(b1-3)GlcNAc6S
# Procedure, shortened: as §1
# Gal6S(b1-4)Glc = biological target: Gal6S(b1-4)Glc
# Procedure, shortened: as §1
# Gal6S(b1-4)Glc6S = biological target: Gal6S(b1-4)Glc6S
# Procedure, shortened: as §1
# Gal6S(b1-4)GlcNAc = biological target: Gal6S(b1-4)GlcNAc
# Procedure, shortened: as §1
# Gal6S(b1-4)GlcNAc6S = biological target: Gal6S(b1-4)GlcNAc6S
# Procedure, shortened: as §1
# GalNAc(a1-3)Gal = biological target: GalNAc(a1-3)Gal
# Procedure, shortened: as §1
# GalNAc(a1-3)GalNAc = biological target: GalNAc(a1-3)GalNAc
# Procedure, shortened: as §1
# [20] = biological target: GalNAc(a1-3)GalNAc(a1-3)Gal(a1-4)Gal(b1-4)GlcNAc
# Procedure, shortened: as §1
# [21] = biological target: GalNAc(a1-3)GalNAc(b1-3)Gal(a1-4)Gal(b1-4)Glc
# Procedure, shortened: as §1
# GalNAc(b1-3)Gal = biological target: GalNAc(b1-3)Gal
# Procedure, shortened: as §1
# [22] = biological target: GalNAc(b1-3)Gal(a1-4)Gal(b1-4)GlcNAc
# Procedure, shortened: as §1
# [23] = biological target: GalNAc(b1-3)Gal(a1-4)Gal(b1-4)GlcNAc(b1-3)Gal(b1-4)Glc
# Procedure, shortened: as §1
# [24] = biological target: GalNAc(b1-3)Gal(a1-6)Gal(b1-4)Glc
# Procedure, shortened: as §1
binder,measurement,setting,value
"rPitB (Streptococcus pneumoniae), A0A0I7U739 (protein) MSEIEIINAKKIYHDVPVIENLNITIPKGSLFTLLGASGCGKTTLLRMIAGFNSIKDGEFYFDDTKINNMEPSKRNIGLVFQNYAIFPHLTVRDNVAFGLMQKKVPKEELIQQTNKYLELMQIAQYAD",glycan array binding signal (z-score),[1],0.865
same,glycan array binding signal (z-score),[2],1.64
same,glycan array binding signal (z-score),[3],0.115
same,glycan array binding signal (z-score),[4],0.286
same,glycan array binding signal (z-score),[5],-0.564
same,glycan array binding signal (z-score),[6],-0.055
same,glycan array binding signal (z-score),[7],-0.74
same,glycan array binding signal (z-score),[8],0.262
same,glycan array binding signal (z-score),[9],-0.492
same,glycan array binding signal (z-score),[10],0.086
same,glycan array binding signal (z-score),[11],-0.241
same,glycan array binding signal (z-score),[12],0.445
same,glycan array binding signal (z-score),[13],-0.061
same,glycan array binding signal (z-score),[14],-0.596
same,glycan array binding signal (z-score),[15],0.741
same,glycan array binding signal (z-score),[16],0.088
same,glycan array binding signal (z-score),Gal(b1-6)Gal,-0.459
same,glycan array binding signal (z-score),Gal3S(b1-3)GalNAc,-0.677
same,glycan array binding signal (z-score),Gal3S(b1-3)GlcNAc,-0.127
same,glycan array binding signal (z-score),[17],-0.575
same,glycan array binding signal (z-score),Gal3S(b1-4)Glc,-0.401
same,glycan array binding signal (z-score),Gal3S(b1-4)Glc6S,0.112
same,glycan array binding signal (z-score),Gal3S(b1-4)GlcNAc,0.147
same,glycan array binding signal (z-score),Gal3S(b1-4)GlcNAc6S,0.471
same,glycan array binding signal (z-score),[18],-0.427
same,glycan array binding signal (z-score),[19],1.25
same,glycan array binding signal (z-score),Gal3S4S(b1-4)GlcNAc,-0.201
same,glycan array binding signal (z-score),Gal3S6S(b1-4)GlcNAc,0.627
same,glycan array binding signal (z-score),Gal3S6S(b1-4)GlcNAc6S,-0.233
same,glycan array binding signal (z-score),Gal4S(b1-4)GlcNAc,-0.932
same,glycan array binding signal (z-score),Gal4S6S(b1-4)GlcNAc,-0.597
same,glycan array binding signal (z-score),Gal6S(b1-3)GlcNAc,-0.86
same,glycan array binding signal (z-score),Gal6S(b1-3)GlcNAc6S,0.052
same,glycan array binding signal (z-score),Gal6S(b1-4)Glc,-0.374
same,glycan array binding signal (z-score),Gal6S(b1-4)Glc6S,0.951
same,glycan array binding signal (z-score),Gal6S(b1-4)GlcNAc,0.313
same,glycan array binding signal (z-score),Gal6S(b1-4)GlcNAc6S,0.24
same,glycan array binding signal (z-score),GalNAc(a1-3)Gal,-0.582
same,glycan array binding signal (z-score),GalNAc(a1-3)GalNAc,-0.089
same,glycan array binding signal (z-score),[20],-0.121
same,glycan array binding signal (z-score),[21],-0.152
same,glycan array binding signal (z-score),GalNAc(b1-3)Gal,-0.887
same,glycan array binding signal (z-score),[22],0.195
same,glycan array binding signal (z-score),[23],-0.616
same,glycan array binding signal (z-score),[24],-0.225

# 10 entries from above, bar-delimited.
binder | measurement | setting | value
rPitB (Streptococcus pneumoniae), A0A0I7U739 (protein) MSEIEIINAKKIYHDVPVIENLNITIPKGSLFTLLGASGCGKTTLLRMIAGFNSIKDGEFYFDDTKINNMEPSKRNIGLVFQNYAIFPHLTVRDNVAFGLMQKKVPKEELIQQTNKYLELMQIAQYAD | glycan array binding signal (z-score) | Gal3S(b1-4)Glc | -0.401
same | glycan array binding signal (z-score) | Gal3S(b1-4)Glc6S | 0.112
same | glycan array binding signal (z-score) | Gal3S(b1-4)GlcNAc | 0.147
same | glycan array binding signal (z-score) | Gal3S(b1-4)GlcNAc6S | 0.471
same | glycan array binding signal (z-score) | [18] | -0.427
same | glycan array binding signal (z-score) | [19] | 1.25
same | glycan array binding signal (z-score) | Gal3S4S(b1-4)GlcNAc | -0.201
same | glycan array binding signal (z-score) | Gal3S6S(b1-4)GlcNAc | 0.627
same | glycan array binding signal (z-score) | Gal3S6S(b1-4)GlcNAc6S | -0.233
same | glycan array binding signal (z-score) | Gal4S(b1-4)GlcNAc | -0.932
